PubChem BioAssay AID651640 (Broad Institute, 2012)
Among all 350,000 compounds or so, about 6,000 (1.7%) were called active. The inconclusive results got no clear call from the source; some entries with a clear call stand among them for comparison. Cut-off read from the data, not from the text of the source: active = CPE inhibition above about 20% (passing the limit was not always enough); inconclusive = no clear call, values can overlap the other calls; tested in BHK-21 cells.

assay: protection of cells from dengue 2 killing – plate reader, single concentration, primary screen (AID 651640); settings: DENV2-infected cells, cytopathic effect rescue, at 9.99 µM, stronger effect = higher value;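 note: 0% = median of neutral control wells and 100% = median of positive control wells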

| SMILES | CPE inhibition |
| --- | --- |
| CO[C@H](CN(C)Cc1ccc2c(c1)OCO2)[C@H](C)CN(C(=O)c1ccccc1)[C@H](C)CO | inactive: 1.61% |
| COc1ccccc1NC(=O)N[C@H]1C=C[C@@H](CC(=O)N[C@@H](C)c2ccccc2)O[C@@H]1CO | active: 20.2% |
| COc1cccc(-n2c(CN3CCN(Cc4ccccc4)CC3)nc3ccc([N+](=O)[O-])cc3c2=O)c1 | inconclusive: 31.3% |
| OCCc1ccc(NCCc2cccs2)cc1 | active: 20.9% |
| O=C(c1cccnc1)N1CC2(C1)[C@@H](c1ccccc1)[C@@H](CO)N2Cc1cccnc1 | inactive: 9.09% |
| O=C(Nc1ccccc1)N1CC(=O)N2[C@@H](CO)[C@@H](c3ccc(C#CC4CCCC4)cc3)[C@@H]2C1 | inconclusive: 29.7% |
| O=C(Cc1c(Sc2ccccc2)c2ccccc2n1Cc1ccccc1)NCCO | inactive: -4.6% |
| CC(=O)Nc1cccc(-c2ccnc3c2CC(C)(C(=O)NCc2ccccc2)O3)c1 (stereo not drawn) | inconclusive: 20.5% |
| CCCn1nc(NC(=O)c2cccs2)c2cc3ccc(C)cc3nc21 | inconclusive: 23.3% |
| C[C@@H]1CN([C@@H](C)CO)C(=O)Cc2cc(NS(=O)(=O)c3ccc(F)cc3)ccc2O[C@H]1CN(C)CC1CC1 | inactive: -2.75% |
| CO[C@H]1CN(C)C(=O)c2ccc(NC(=O)Nc3cccc(F)c3)cc2OC[C@@H](C)N(C(=O)Nc2c(C)noc2C)C[C@@H]1C | active: 25.2% |
| CCC(=O)N1Cc2cc(C(=O)NCc3cccc(F)c3)nc(-c3cccc(C4=CCCC4)c3)c2[C@H]1CCO | inconclusive: 20.8% |
| O=C1c2c(O)cc(O)cc2O[C@H](c2ccc(O)c(O)c2)[C@H]1O | inactive: -5.5% |
| Cc1ccc(Cn2c(=S)[nH]c3ccccc3c2=O)cc1 | inactive: -5.38% |
| Cc1ccccc1P(=O)(c1ccccc1)c1ccccc1C | inactive: -2.67% |
| CNC[C@H]1Oc2ncc(-c3ccccc3C)cc2C(=O)N([C@@H](C)CO)C[C@H]1C | inactive: 12.5% |
| CN(C(=O)c1cccc(NC(=O)Cc2cccc(NC(=O)C3CCN(S(=O)(=O)c4cccc([N+](=O)[O-])c4)CC3)c2)c1)C1CC1 | inconclusive: 20.4% |
| Cc1ccc(-c2cnc3c(Nc4cccc(OC(F)(F)C(F)F)c4)nccn23)cc1 | inconclusive: 77% |
| C[n+]1ccc2[nH]c3ccccc3c2c1 | inconclusive: 25% |
| CN1CCCC(CN2c3ccccc3Sc3ccccc32)C1 (stereo not drawn) | inconclusive: 36.1% |
| C[C@@H]1CN([C@H](C)CO)C(=O)c2cc(C3=CCCC3)cnc2O[C@@H]1CN(C)C(=O)Nc1cccc(F)c1 | inactive: 0.772% |
| Cc1ccccc1-c1cc2c(c3c1ccn3C)C1CCC2O1 (stereo not drawn) | inconclusive: 22% |
| COc1ccc2c3c([nH]c2c1)[C@@H](CO)N(C(=O)Nc1cccc(F)c1)CC31CN(CC2CCOCC2)C1 | inconclusive: 34.5% |
| CC(C)CC#Cc1cnc2c(c1)C(=O)N([C@@H](C)CO)C[C@@H](C)[C@@H](CN(C)C(=O)C1CCOCC1)O2 | inactive: -7.09% |

| SMILES | CPE inhibition |
| --- | --- |
| Cc1c(CCC(=O)NCCCN2CCCC2=O)c(=O)oc2c(C)c(O)ccc12 | inconclusive: 82.2% |
| CC(C)C[C@@H](CO)NS(=O)(=O)c1cc(Cl)ccc1F | inconclusive: 26.3% |
| O=C(O)CCCCCN1C(=O)/C(=C\c2ccc(-c3ccc(Cl)cc3)o2)SC1=S | inactive: 5.63% |
| COc1ccc(CN(C)C[C@@H]2Oc3c(NC(=O)NC(C)C)cccc3C(=O)N([C@H](C)CO)C[C@@H]2C)cc1 | inconclusive: 22.9% |
| Cc1cccc(Cc2cnc(N3C(=N)SC(C)C3=O)s2)c1 (stereo not drawn) | inconclusive: 22.2% |
| Cc1ccccc1CSc1ccc(-c2ccc3c(c2)OCO3)nn1 | active: 51.6% |
| Nc1[nH]c(C(=O)c2ccccc2)c(-c2ccccc2Cl)c1C(=O)c1ccccc1 | inactive: 7.17% |
| O=C(N[C@H]1C=C[C@H](CC(=O)N2CCC(Cc3ccccc3)CC2)O[C@@H]1CO)c1cnccn1 | inactive: 3.42% |
| Nc1[nH][nH]c(=O)c1N=Nc1cccc(Cl)c1 | inconclusive: 36.9% |
| COc1cc([N+](=O)[O-])c2ncsc2c1 | inconclusive: 27.1% |
| Cc1ccc(S(=O)(=O)Nc2cccc3c2O[C@H](CN(C)S(=O)(=O)c2cn(C)cn2)[C@@H](C)CN([C@H](C)CO)C3=O)cc1 | inconclusive: 33.2% |
| COc1cccc(S(=O)(=O)N2C[C@@H](O)COC[C@@H]3O[C@@H](CC(=O)Nc4ccccc4)CC[C@H]32)c1 | inactive: 9.07% |
| C[C@H]1CN([C@@H](C)CO)C(=O)Cc2cc(NC(=O)Nc3ccc(F)cc3)ccc2O[C@H]1CN(C)Cc1ccncc1 | inconclusive: 47.4% |
| COc1ccccc1-c1cn(CC[C@@H]2CC[C@H](NC(=O)c3ccccc3F)[C@H](CO)O2)nn1 | inactive: 4.94% |
| CO[C@@H]1CN(C)C(=O)c2cc(NS(=O)(=O)c3cn(C)cn3)ccc2OC[C@H](C)NC[C@H]1C | inconclusive: 26.3% |
| CN(C)CCCN(C(=O)COc1ccc(Cl)cc1)c1nc2ccc(F)cc2s1 | inactive: 2.26% |
| CC(C)NC(=O)Nc1ccc2c(c1)C(=O)N([C@H](C)CO)C[C@H](C)[C@@H](CN(C)C(=O)Nc1ccc3c(c1)OCO3)OCCCC[C@H](C)O2 | inactive: -2.35% |
| Cc1ccc2[nH]c(=O)c(CN(CC3CCCO3)C(=O)c3cccs3)cc2c1 (stereo not drawn) | inactive: -6.3% |
| C[C@@H]1CN([C@H](C)CO)C(=O)c2cccc(NC(=O)Nc3ccc(C(F)(F)F)cc3)c2O[C@@H]1CN(C)S(C)(=O)=O | inconclusive: 33.1% |
| O=C(C[C@H]1C=C[C@H](NC(=O)c2cccc(F)c2)[C@@H](CO)O1)NCc1ccccc1 | inconclusive: 46.9% |
| Cc1cnc(C(=O)OCC(=O)c2ccccc2)cn1 | inconclusive: 25.5% |
| CC(C)NC(=O)N1[C@@H](CO)[C@@H]2c3ccccc3N(C)C[C@@H]21 | inactive: -11% |
| COc1cc(C2NCC(c3ccc(Cl)cc3Cl)c3c2[nH]c2ccccc32)cc(OC)c1OC (stereo not drawn) | inconclusive: 32.8% |
| CC(C)c1ccc(NC(=O)C2CCCN2S(=O)(=O)c2ccccc2F)cc1 (stereo not drawn) | inconclusive: 30.8% |

A different layout for 3 compounds above:
SMILES | CPE inhibition
CO[C@H](CN(C)Cc1ccc2c(c1)OCO2)[C@H](C)CN(C(=O)c1ccccc1)[C@H](C)CO | inactive: 1.61%
COc1ccccc1NC(=O)N[C@H]1C=C[C@@H](CC(=O)N[C@@H](C)c2ccccc2)O[C@@H]1CO | active: 20.2%
COc1cccc(-n2c(CN3CCN(Cc4ccccc4)CC3)nc3ccc([N+](=O)[O-])cc3c2=O)c1 | inconclusive: 31.3%
